The campaign covered roughly 310,000 compounds. About 17,000 (5.5%) were called active. This list was built around the results that the source calls inconclusive (neither active nor inactive); the mix of calls is not that of the screen. Calls follow the shape of the dose curve; as a rule, active = well fitted inhibition curve with a large enough effect; inconclusive = small, poorly fitted or top-dose-only effect, or effect the other way; inactive = no such curve, though single readings can be large or run the other way. A potency beside an inconclusive call is a rough fit, not a confirmed value.
target: Nuclear receptor ROR-gamma (Mus musculus) (UniProt P51450); test: qHTS for inhibitors of ROR gamma transcriptional activity; details: Drosophila S2 Gal4-RORgamma UAS-luciferase reporter, 20 h; series mostly up to 53.6 µM; also: nearly all actives have a fitted effect of over 60% in size
Summary of the method: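 A Gal4/UAS one-hybrid system in insect cells: metallothionein-promoter Gal4–ROR gamma fusion plus Photinus luciferase reporter. Copper sulfate 700 uM final, 20 hr ambient incubation, luminescent detection after 10 min with reagent.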
Potency is read from the fitted curve at half-maximal effect.

Protein sequences, listed by entry. Tags and fused reporters are not part of them. Lines headed by an entry give the natural chain unless they say otherwise; changes in a name come on top.
UniProt P51450: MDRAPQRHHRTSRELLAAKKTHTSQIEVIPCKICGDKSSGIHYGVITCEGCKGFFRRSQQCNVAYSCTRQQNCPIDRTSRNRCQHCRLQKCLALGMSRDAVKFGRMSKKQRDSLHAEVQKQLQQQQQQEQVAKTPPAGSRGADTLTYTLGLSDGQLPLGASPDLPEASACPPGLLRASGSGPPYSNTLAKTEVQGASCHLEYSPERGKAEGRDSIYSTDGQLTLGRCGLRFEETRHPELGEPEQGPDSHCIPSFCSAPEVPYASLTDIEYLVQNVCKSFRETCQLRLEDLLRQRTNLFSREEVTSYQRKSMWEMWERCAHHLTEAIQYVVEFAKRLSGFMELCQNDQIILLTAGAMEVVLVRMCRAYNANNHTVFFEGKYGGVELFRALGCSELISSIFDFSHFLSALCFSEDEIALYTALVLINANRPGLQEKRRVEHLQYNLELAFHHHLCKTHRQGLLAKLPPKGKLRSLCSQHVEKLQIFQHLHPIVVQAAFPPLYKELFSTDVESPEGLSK

**Q.** `COc1ccc2[nH]c3nc(SC(C)C)nnc3c2c1` was tested. Which Potency did it give?
**A.** The Potency was inconclusive: 35.5 µM [activator, single point].

**Q.** How did the Potency turn out when `CC(=O)N(CCC(Cc1ccccc1)c1ccco1)Cc1ccco1` (stereo not given) was run?
**A.** The Potency was inconclusive: 11.2 µM [activator, partial curve].

**Q.** Which Potency does the source give for `CCCCC(=O)NNC(=S)NCc1ccccc1` here?
**A.** The Potency was active: 14.1 µM.

**Q.** For `Cc1c(O)ccc(/C(Cc2ccc3ccccc3n2)=N\O)c1O`, which Potency is on record?
**A.** Its Potency is inconclusive: 35.5 µM [inhibitor, single point].

**Q.** How did the Potency turn out when `S=C(Nc1cc(Cl)cc(Cl)c1)NC1CCN(Cc2ccccc2)CC1` was run?
**A.** Its Potency is inconclusive: 35.5 µM [inhibitor, single point].

**Q.** With `O=C(Nc1cccc2ncccc12)c1ccc([N+](=O)[O-])o1` as the molecule, how does the Potency read?
**A.** The Potency was inconclusive: 4.47 µM [inhibitor, full curve, poor fit].

**Q.** `Cc1cc(O)ccc1Nc1nc(-c2cccnc2)cs1` was tested. Which Potency did it give?
**A.** Its Potency is inconclusive: 20 µM [activator, single point].

**Q.** `COc1ccc(NC(=O)C(c2ccccc2)N2CCN(c3ccccn3)CC2)cc1Cl` (stereo not given) was tested. Which Potency did it give?
**A.** The Potency was “inactive”.

**Q.** `CCOC(=O)/C(=N/Nc1ccccc1)Sc1nnc(CCc2ccccc2)n1-c1ccccc1` was tested. Which Potency did it give?
**A.** Its Potency is active: 4.47 µM.

**Q.** With `Cc1nc(C(=O)NCc2ccccc2)sc1C1(C)CC(c2cccnc2)=NO1` (stereo not given) as the molecule, how does the Potency read?
**A.** Its Potency is inconclusive: 11.2 µM [activator, partial curve].

**Q.** `COc1cc(OC)nc(Oc2cc(/C=N/O)ccc2OC)n1` was tested. Which Potency did it give?
**A.** The Potency was inconclusive: 31.6 µM [activator, single point].

**Q.** How did the Potency turn out when `O=C(Nc1ccc(SC(F)F)cc1)c1ccc2nccnc2c1` was run?
**A.** Its Potency is inconclusive: 17.8 µM [activator, partial curve].

**Q.** How did the Potency turn out when `C/C(=N\Nc1nc2ccccc2[nH]1)c1ccc2c(c1)OCO2` was run?
**A.** The Potency was active: 3.16 µM.

**Q.** `CCN1CCCC(NC(=O)c2scc3c2CCCC3)C1` (stereo not given) was tested. Which Potency did it give?
**A.** Its Potency is inconclusive: 0.398 µM [inhibitor, partial curve, poor fit].

**Q.** Which Potency does the source give for `Cc1c(C(=O)NC(=S)NCc2cccnc2)oc2ccccc12` here?
**A.** The Potency was inconclusive: 14.1 µM [inhibitor, single point].

**Q.** For `N#CCCn1c(=O)cnc2cnc(Nc3ccccc3)nc21`, which Potency is on record?
**A.** Its Potency is inconclusive: 7.94 µM [activator, partial curve].

**Q.** With `COCCOc1nc2c(c(=O)n(C)c(=O)n2C)n1Cc1cccc(OC)c1` as the molecule, how does the Potency read?
**A.** Its Potency is inconclusive: 2.24 µM [activator, partial curve, poor fit].

**Q.** `CCOC(=O)CSc1nnc(Cc2cc(=O)[nH]c(=O)[nH]2)n1-c1cccc(OC)c1` was tested. Which Potency did it give?
**A.** The Potency was inconclusive: 20 µM [activator, single point].

**Q.** How did the Potency turn out when `CCOC(=O)NC1(NC2CCCCC2)Oc2ccccc2O1` was run?
**A.** Its Potency is inconclusive: 0.631 µM [inhibitor, full curve].

**Q.** Which Potency does the source give for `O=C(Cc1ccccc1Cl)Nc1cccnc1` here?
**A.** Its Potency is “inactive”.

**Q.** `CCOC(=O)Cn1c(CN2CCN(c3cccc(Cl)c3)CC2)nc2c1c(=O)[nH]c(=O)n2C` was tested. Which Potency did it give?
**A.** Its Potency is inconclusive: 14.1 µM [activator, single point].

**Q.** Which Potency does the source give for `Cc1cc(C)c(S(=O)(=O)N2CCCC(C(=O)NCCC3=CCCCC3)C2)c(C)c1` (stereo not given) here?
**A.** The Potency was “inactive”.

**Q.** For `O=[N+]([O-])c1cc(CN2CCN(c3ccccc3)CC2)c(O)c2ncccc12`, which Potency is on record?
**A.** Its Potency is active: 0.112 µM.

**Q.** `Cc1ccc(Nc2nc3nonc3[nH]c2=O)cc1Cl` was tested. Which Potency did it give?
**A.** Its Potency is inconclusive: 11.2 µM [activator, partial curve].

**Q.** `COc1ccc(N2CCN(S(=O)(=O)CC34CCC(CC3=O)C4(C)C)CC2)cc1` (stereo not given) was tested. Which Potency did it give?
**A.** The Potency was inconclusive: 14.1 µM [activator, single point].

**Q.** With `Oc1c(C(c2ccco2)N2CCOCC2)sc2ncnn12` (stereo not given) as the molecule, how does the Potency read?
**A.** Its Potency is inconclusive: 35.5 µM [inhibitor, single point].

**Q.** For `O=C(CCc1nnc2ccc(NCc3ccccc3)nn12)NC1CCCCC1`, which Potency is on record?
**A.** The Potency was “inactive”.

**Q.** How did the Potency turn out when `COc1c(Br)cc(Br)cc1/C=N/NC(=O)c1cccnc1` was run?
**A.** The Potency was inconclusive: 25.1 µM [inhibitor, single point].

**Q.** For `OC(COc1ccc2ccccc2c1)CN1CCN(c2ccc(F)cc2)CC1` (stereo not given), which Potency is on record?
**A.** The Potency was “inactive”.

**Q.** With `Clc1cccc(OCCN2CCN(CCOc3cccc(Cl)c3)CC2)c1` as the molecule, how does the Potency read?
**A.** Its Potency is “inactive”.

**Q.** Which Potency does the source give for `COc1ccccc1CNC(=O)c1oc2ccc(S(=O)(=O)N3CCCC3)cc2c1C` here?
**A.** Its Potency is inconclusive: 0.316 µM [activator, full curve, poor fit].

**Q.** `Cc1nc(Cl)sc1C(=O)Nc1ccc(Cl)cc1` was tested. Which Potency did it give?
**A.** The Potency was inconclusive: 35.5 µM [activator, single point].

**Q.** For `CCCCNc1nc2c(-c3ccccc3)nnn2c2ccccc12`, which Potency is on record?
**A.** Its Potency is inconclusive: 1.41 µM [activator, full curve, poor fit].

**Q.** Which Potency does the source give for `CC(C)(C)c1nc(CN2CCOCC2)ccc1O` here?
**A.** The Potency was inconclusive: 6.31 µM [inhibitor, single point].

**Q.** How did the Potency turn out when `CC(C)Oc1ccc(C(=O)NC(=S)N2CCOCC2)cc1` was run?
**A.** The Potency was active: 3.55 µM.

**Q.** Which Potency does the source give for `COc1ccccc1NC(=O)NCC(c1ccco1)N1CCCCC1` (stereo not given) here?
**A.** Its Potency is “inactive”.

**Q.** Which Potency does the source give for `CC1CCN(c2ccccc2NC(=O)c2ccc(N3CCOCC3)c([N+](=O)[O-])c2)CC1` here?
**A.** The Potency was “inactive”.

**Q.** For `O=C1/C(=C/c2ccc(F)c(F)c2)CSc2sccc21`, which Potency is on record?
**A.** Its Potency is inconclusive: 15.8 µM [activator, single point].

**Q.** `CCOC(=O)c1oc2cccc(O)c2c1C` was tested. Which Potency did it give?
**A.** The Potency was inconclusive: 35.5 µM [activator, single point].

**Q.** Which Potency does the source give for `CC(C)C(C(=O)C=[N+]=[N-])N1C(=O)c2ccccc2C1=O` (stereo not given) here?
**A.** The Potency was “inactive”.

**Q.** With `COc1ccc(/C(N)=N/OC(=O)CSc2ccccc2)cc1` as the molecule, how does the Potency read?
**A.** The Potency was inconclusive: 0.501 µM [activator, full curve].

**Q.** For `CCOC(=O)Cn1c(=O)oc2cc(S(=O)(=O)NCCCc3ccccc3)ccc21`, which Potency is on record?
**A.** The Potency was inconclusive: 7.08 µM [activator, partial curve].

**Q.** For `C=CCNc1nc(N)c(C(=C(C#N)C#N)c2ccc(Br)cc2)s1`, which Potency is on record?
**A.** Its Potency is inconclusive: 12.6 µM [activator, single point].

**Q.** `CCOc1ccc(NS(=O)(=O)c2ccc(OC)c(NC(=O)c3ccc4c(c3)OCCO4)c2)cc1` was tested. Which Potency did it give?
**A.** Its Potency is inconclusive: 2.82 µM [activator, partial curve].

**Q.** For `COCCCn1c(SCC(=O)Nc2ccc(NC(=O)c3ccco3)c(OC)c2)nc2ccccc2c1=O`, which Potency is on record?
**A.** Its Potency is inconclusive: 14.1 µM [inhibitor, single point].

**Q.** `O=C(CC(c1ccc(F)cc1)c1ccco1)Nc1nccs1` (stereo not given) was tested. Which Potency did it give?
**A.** Its Potency is inconclusive: 12.6 µM [inhibitor, single point].

**Q.** For `C/C(=N\NC(=O)c1ccc(N(C)C)cc1)c1ccc(C)c(C)c1`, which Potency is on record?
**A.** Its Potency is inconclusive: 35.5 µM [inhibitor, single point].

**Q.** For `O=C(Cn1nc(-c2ccccc2)nc1-c1ccccc1)OC1CCCCC1`, which Potency is on record?
**A.** Its Potency is inconclusive: 3.98 µM [activator, full curve, poor fit].

**Q.** For `COCCNC(=S)N/N=C(\C)c1ccc(Cl)c(Cl)c1`, which Potency is on record?
**A.** Its Potency is active: 2.82 µM.

**Q.** How did the Potency turn out when `O=C(CC(=O)N1CCN(c2ccccn2)CC1)Nc1ccc2nc3n(c(=O)c2c1)CCCCC3` was run?
**A.** Its Potency is inconclusive: 35.5 µM [inhibitor, single point].

**Q.** Which Potency does the source give for `CCc1nc2ccccc2n1CC1CC1(Cl)Cl` (stereo not given) here?
**A.** The Potency was active: 7.08 µM.

**Q.** `O=C(Nc1ccccc1)N1CCC(O)(c2cccc(C(F)(F)F)c2)CC1` was tested. Which Potency did it give?
**A.** The Potency was inconclusive: 28.2 µM [activator, single point].

**Q.** For `O=C(NCCc1ccccc1)c1ccc(NCC2CCCO2)c([N+](=O)[O-])c1` (stereo not given), which Potency is on record?
**A.** Its Potency is inconclusive: 17.8 µM [activator, partial curve, poor fit].

**Q.** Which Potency does the source give for `COCc1c(C#N)c(NCc2cc(OC)c(OC)c(OC)c2)nc(C)c1[N+](=O)[O-]` here?
**A.** Its Potency is inconclusive: 12.6 µM [activator, partial curve].

**Q.** How did the Potency turn out when `CCn1cc(C(=O)N2CCCC2)c(=O)c2cc(S(=O)(=O)N3CCOCC3)ccc21` was run?
**A.** The Potency was active: 4.47 µM.

**Q.** With `CC(C)C(=O)NC(=S)Nc1nnn(C)n1` as the molecule, how does the Potency read?
**A.** Its Potency is active: 14.1 µM.

**Q.** How did the Potency turn out when `O=S(=O)(NCCN1CCOCC1)c1ccc(-c2ccc(S(=O)(=O)NCCN3CCOCC3)cc2)cc1` was run?
**A.** The Potency was inconclusive: 11.2 µM [activator, partial curve].

**Q.** For `C/C=C1\COC(C(=O)NCc2cccc(OC)c2OC)(C(F)(F)F)C=C1C=C1CCCCC1` (stereo not given), which Potency is on record?
**A.** Its Potency is inconclusive: 35.5 µM [activator, single point].

**Q.** Which Potency does the source give for `c1ccc(N2CCN(c3ccccc3)C2c2cccs2)cc1` here?
**A.** The Potency was inconclusive: 7.08 µM [activator, partial curve, poor fit].

**Q.** With `NC(=O)c1cc(S(=O)(=O)NCCCc2ccco2)cs1` as the molecule, how does the Potency read?
**A.** The Potency was inconclusive: 28.2 µM [activator, single point].

**Q.** `COc1ccc(Nc2nc(-c3ccc(OC)cc3)c(CCC(=O)O)s2)cc1` was tested. Which Potency did it give?
**A.** Its Potency is inconclusive: 22.4 µM [activator, single point].

**Q.** With `O=C(Nc1ccc(S(=O)(=O)N2CCCCC2c2cccnc2)cc1)c1c(F)cccc1F` (stereo not given) as the molecule, how does the Potency read?
**A.** Its Potency is “inactive”.

**Q.** How did the Potency turn out when `O=C(c1cccs1)N1CCC(Cc2ccccc2)CC1` was run?
**A.** Its Potency is “inactive”.

**Q.** With `O=S(=O)(c1ccccc1)N1CCN(C(=S)Nc2ccc(Br)cc2)CC1` as the molecule, how does the Potency read?
**A.** Its Potency is “inactive”.

**Q.** How did the Potency turn out when `CC(C)(C)C1=C(C#N)C(c2cccnc2)C(C#N)=C(N)O1` (stereo not given) was run?
**A.** Its Potency is inconclusive: 35.5 µM [inhibitor, single point].

**Q.** How did the Potency turn out when `O=S(=O)(Nc1ccc(Cc2ccncc2)cc1)c1ccc(Br)s1` was run?
**A.** The Potency was inconclusive: 35.5 µM [activator, single point].

**Q.** For `O=C(Cc1cccc2ccccc12)Nc1ccc(OC(F)F)c(Cl)c1`, which Potency is on record?
**A.** The Potency was inconclusive: 22.4 µM [activator, single point].

**Q.** How did the Potency turn out when `Cc1ccc(C)c(-c2csc(N/N=C/c3ccco3)n2)c1` was run?
**A.** Its Potency is active: 15.8 µM.

**Q.** `CCOC(=O)CCc1c(C)nc(SCCCn2c(=O)[nH]c3ccccc32)c(C#N)c1C` was tested. Which Potency did it give?
**A.** The Potency was inconclusive: 17.8 µM [inhibitor, partial curve, poor fit].

**Q.** For `CCCN(CCC)Cc1cc(=O)oc2cc3c(cc12)CCC3`, which Potency is on record?
**A.** The Potency was “inactive”.

Reference: PubChem BioAssay AID2551 (National Center for Advancing Translational Sciences (NCATS), 2010)
